Reference: US20200368315A1, “ANTIMICROBIAL PEPTIDES AND ADMIXTURES THEREOF SHOWING ANTIMICROBIAL ACTIVITY AGAINST GRAM-NEGATIVE PATHOGENS” (priority 2017, published 2020)
Several values for one entry are separate records, joined by “and”; a condition that tells them apart may be missing. Identical values can stand only once. Like-named read-outs stand apart in the source and are kept apart here. Not every detail of the peptide structures is certain; ends, links or a residue may be inferred. Some of these results come from one statement about several compounds together. No end group written: not given here.

Experiments:
Gram-negative pathogens = assay: Chequerboard synergy of nisin or vancomycin with GNPs, summary statements over the 5 Gram-negative pathogens; assay type: cell-based; conditions: all the 5 Gram-negative pathogens
K. pneumoniae LMG20218 [1] = assay type: cell-based, Klebsiella pneumoniae
Description: (§1) The test of synergistic effect was processed by conducting standard chequerboard broth microdilution assays. Nisin (Drug X) was loaded two fold serially diluted from row 1 to 10 in X-axis while GNPs (Drug Y) were loaded in eight two fold serially diluted concentrations from line A to H in Y-axis (FIG. 1). The original concentrations of peptides were MICs of each. Row 11 are used as growth control with no peptide was included, while row 12 with MHB medium-only wells was included as a sterility control as referred before. 50 uL fresh bacterial suspension was added to well 1-11 and final volume of each well on the plate is 100 uL.
(§2) To determine whether the combination therapy is additive, synergistic or antagonistic, fractional inhibitory concentration (FIC) indices were calculated. FICI=FICa+FICb=MICac/MICa+MICbc/MICb. The MICa/MICb is the MIC of compound A/B alone. MICac is the MIC of compound A in combination with compound B and MICbc is the MIC of compound B when it was combination with compound A. […]. FICa is FIC of compound A while FICb is FIC of compound B. The FICI is interpreted as follows: synergistic, FICI≤0.5; additive, 0.5<FICI<1; indifferent, 1<FICI<2; antagonistic, FICI>2.

E. aerogenes LMG 02094 [2] = assay type: cell-based, Enterobacter aerogenes
Description: as §1, §2

P. aeruginosa LMG 6395 [3] = assay type: cell-based, Pseudomonas aeruginosa
Description: as §1, §2

E. aerogenes LMG 02094 [4] = tested on: E. aerogenes LMG 02094
Procedure: (§3) The test of synergistic effect was processed by conducting standard chequerboard broth microdilution assays. […] Row 11 are used as growth control with no peptide was included, while row 12 with MHB medium-only wells was included as a sterility control as referred before. 50 uL fresh bacterial suspension was added to well 1-11 and final volume of each well on the plate is 100 uL.
(§4) The test of synergistic effect was processed as method 1.4.
as §2

K. pneumoniae LMG20218 [5] = tested on: K. pneumoniae LMG20218
Procedure: as §3, §4, §2

P. aeruginosa LMG 6395 [6] = tested on: P. aeruginosa LMG 6395
Procedure: as §3, §4, §2

A. baumannii LMG01041 [7] = tested on: A. baumannii LMG01041
Procedure: as §3, §4, §2

E. coli LMG15862 [8] = tested on: E. coli LMG15862
Procedure: as §3, §4, §2

A. baumannii LMG01041 [9] = assay type: cell-based, Acinetobacter baumannii
Description: as §1, §2

E. coli LMG15862 [10] = assay type: cell-based, Escherichia coli
Description: as §1, §2

[11] = MIC of GNP when used with the MICac concentration of nisin
[12] = MIC of nisin in combination with the GNP at the MICbc concentration
[13] = MIC of GNP in combination with vancomycin at the MICac concentration
[14] = MIC of vancomycin in combination with the GNP at the MICbc concentration

For CC[C@H](C)[C@H](NC(=O)[C@H](CCCNC(=N)N)NC(=O)[C@H](CCCNC(=N)N)NC(=O)[C@H](Cc1ccccc1)NC(=O)[C@H](CC(C)C)NC(=O)[C@H](CCCNC(=N)N)NC(=O)[C@@H](N)CCCNC(=N)N)C(=O)N[C@@H](CC(C)C)C(=O)N[C@@H](CCCNC(=N)N)C(=O)N[C@@H](Cc1c[nH]c2ccccc12)C(=O)N[C@@H](CC(C)C)C(N)=O [GNP-6], the “Interpretation of the combination effect” value (Gram-negative pathogens; in admixture with nisin) was “synergistic (synergistic, FICI≤0.5)”.

With CC[C@H](C)[C@H](NC(=O)[C@H](CCCNC(=N)N)NC(=O)[C@H](CCC(N)=O)NC(=O)[C@@H](NC(=O)[C@@H](NC(=O)[C@@H](N)CCCNC(=N)N)[C@@H](C)CC)C(C)C)C(=O)N[C@@H](CCCCN)C(=O)N[C@@H](CCCCN)C(=O)N[C@@H](Cc1c[nH]c2ccccc12)C(=O)N[C@@H](CC(C)C)C(=O)N[C@@H](CCCNC(=N)N)C(N)=O [GNP-8] the “Interpretation of the combination effect” value (Gram-negative pathogens; in admixture with vancomycin) was “synergistic (synergistic, FICI≤0.5)”.

For GIGKHVGKALKGLKGLLKGLGEC [GNP-7], the “Interpretation of the combination effect” value (Gram-negative pathogens; in admixture with nisin) was “synergistic (synergistic, FICI≤0.5)”.

CC[C@@H](C)[C@@H](NC(=O)[C@@H](CCCNC(=N)N)NC(=O)[C@@H](CCCNC(=N)N)NC(=O)[C@@H](Cc1ccccc1)NC(=O)[C@@H](CC(C)C)NC(=O)[C@@H](CCCNC(=N)N)NC(=O)[C@H](N)CCCNC(=N)N)C(=O)N[C@H](CC(C)C)C(=O)N[C@H](CCCNC(=N)N)C(=O)N[C@H](Cc1c[nH]c2ccccc12)C(=O)N[C@H](CC(C)C)C(N)=O [GNP-D6] showed an MICb (K. pneumoniae LMG20218 [1]; MIC of GNP alone) of 2 µM, an MICbc (K. pneumoniae LMG20218 [1]; [11]) of 0.5 µM and an MICac (K. pneumoniae LMG20218 [1]; [12]) of 6 µM. It also gave an MICb (E. aerogenes LMG 02094 [2]; MIC of GNP alone) of 2 µM, an MICbc (E. aerogenes LMG 02094 [2]; [11]) of 0.5 µM and an MICac (E. aerogenes LMG 02094 [2]; [12]) of 4 µM. The MICb (P. aeruginosa LMG 6395 [3]; MIC of GNP alone) was 2 µM, the MICbc (P. aeruginosa LMG 6395 [3]; [11]) was 0.25 µM and the MICac (P. aeruginosa LMG 6395 [3]; [12]) was 4.5 µM. The MICb (E. aerogenes LMG 02094 [4]; MIC of GNP alone) was 2 µM, the MICbc (E. aerogenes LMG 02094 [4]; [13]) was 1 µM and the MICac (E. aerogenes LMG 02094 [4]; [14]) was 32 µM. For the same compound, the MICb (K. pneumoniae LMG20218 [5]; MIC of GNP alone) was 2 µM, the MICbc (K. pneumoniae LMG20218 [5]; [13]) was 0.5 µM and the MICac (K. pneumoniae LMG20218 [5]; [14]) was 64 µM and 32 µM. It also gave an MICb (P. aeruginosa LMG 6395 [6]; MIC of GNP alone) of 2 µM, an MICbc (P. aeruginosa LMG 6395 [6]; [13]) of 1 µM and an MICac (P. aeruginosa LMG 6395 [6]; [14]) of 32 µM. For the same compound, the MICb (A. baumannii LMG01041 [7]; MIC of GNP alone) was 2 µM, the MICbc (A. baumannii LMG01041 [7]; [13]) was 0.5 µM and 1 µM and the MICac (A. baumannii LMG01041 [7]; [14]) was 8 µM and 4 µM. The MICb (E. coli LMG15862 [8]; MIC of GNP alone) was 2 µM, the MICbc (E. coli LMG15862 [8]; [13]) was 1 µM and 0.5 µM and the MICac (E. coli LMG15862 [8]; [14]) was 16 µM. It also gave an MICb (A. baumannii LMG01041 [9]; MIC of GNP alone) of 2 µM, an MICbc (A. baumannii LMG01041 [9]; [11]) of 0.5 µM and an MICac (A. baumannii LMG01041 [9]; [12]) of 0.38 µM. It also gave an MICb (E. coli LMG15862 [10]; MIC of GNP alone) of 2 µM, an MICbc (E. coli LMG15862 [10]; [11]) of 0.5 µM and an MICac (E. coli LMG15862 [10]; [12]) of 1.5 µM.

In the case of CC[C@@H](C)[C@@H](NC(=O)[C@H](N)CCCNC(=N)N)C(=O)N[C@@H](C(=O)N[C@H](CCC(N)=O)C(=O)N[C@H](CCCNC(=N)N)C(=O)N[C@@H](C(=O)N[C@H](CCCCN)C(=O)N[C@H](CCCCN)C(=O)N[C@H](Cc1c[nH]c2ccccc12)C(=O)N[C@H](CC(C)C)C(=O)N[C@H](CCCNC(=N)N)C(N)=O)[C@H](C)CC)C(C)C [GNP-D8], the “Interpretation of the combination effect” value (Gram-negative pathogens; in admixture with vancomycin) is reported as “synergistic (synergistic, FICI≤0.5)”.
